# Measurements reported in PubChem BioAssay AID1259254 (NCATS, 2017)
# Test: 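Gene knock-downs that lead to re-replication, shown by excess G2 DNA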 (primary screen)
# System: human HCT116 colorectal cancer cells
# Knock-down reagent: single siRNA against human genes
# Timing: 3 days
# Measured: 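Imaged Hoechst DNA stain sorts each cell into a cycle phase by DNA amount; per plate, G2 fraction set to 0% for non-targeting and 100% for GMNN siRNA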
# Direction: G2 robust z-score: higher = more G2 cells, more excess DNA replication
# Active means: 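An siRNA counts as active if its G2 robust z-score lies at least 5 MADs above the screen median; here such calls match roughly 38% of GMNN control or more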
# Shown is one part, drawn at random, of about 59,000 deposited reagents. About 1,550 of all reagents (2.6%) were called active. 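G2 share is only a proxy for re-replication; each gene was hit by three separate siRNAs, and active genes were retested.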 Unmarked entries are inactive. The numbers tell different reagents against one gene apart. Not all columns of the deposit are shown. Not stated in the record: the amount of reagent.
gene symbol,reagent no.,G2 robust z-score
HRNR,1,1.07
HRNR,2,-0.937
HRNR,3,1.78
OCLNP1,1,0.522
OCLNP1,2,1.77
OCLNP1,3,0.724
LINC02447,1,3.42
LINC02447,2,3.6
LINC02447,3,1.16
SCN8A,1,1.81
SCN8A,2,-1.12
SCN8A,3,0.781
TENT4B,1,-0.456
TENT4B,2,0.723
TENT4B,3,1.06
NOLC1,1,0.936
NOLC1,2,0.194
NOLC1,3,-0.127
LOC646471,1,-0.235
LOC646471,2,0.0241
LOC646471,3,0.943
SLC13A5,1,3.78
SLC13A5,2,1.81
SLC13A5,3,0.134
LRRTM3,1,0.859
LRRTM3,2,0.05
LRRTM3,3,1.79
TRMT11,1,1.81
TRMT11,2,0.383
TRMT11,3,1.58
RIOK3,1,-0.248
RIOK3,2,1.89
RIOK3,3,0.317
PAQR9,1,0.744
PAQR9,2,-0.808
PAQR9,3,-0.73
FITM2,1,0.111
FITM2,2,0.33
FITM2,3,-0.634
PLA2G10,1,1.01
PLA2G10,2,0.381
PLA2G10,3,-0.623
GID4,1,-0.274
GID4,2,1.07
GID4,3,-0.348
PAK6,1,-0.804
PAK6,2,1.48
PAK6,3,1.38
SRM,1,-0.719
SRM,2,1.89
SRM,3,0.717
ST3GAL4,1,2.76
ST3GAL4,2,0.172
ST3GAL4,3,0.149
DUSP4,1,0.312
DUSP4,2,1.22
DUSP4,3,1.08
LOC728688,1,-0.161
LOC728688,2,-0.995
LOC728688,3,0.727
UCKL1,1,-0.877
UCKL1,2,-0.0632
UCKL1,3,-0.214
CIMAP1B,1,-0.957
CIMAP1B,2,-0.433
CIMAP1B,3,1.8
SUSD3,1,0.548
SUSD3,2,-0.085
SUSD3,3,-0.305

Records above whose target name starts with C or c (3):
gene symbol,reagent no.,G2 robust z-score
CIMAP1B,1,-0.957
CIMAP1B,2,-0.433
CIMAP1B,3,1.8
